The target in this series is T1, EhTRF-like III (Entamoeba histolytica) (UniProt C4LSY4).
T1 sequence (looked up): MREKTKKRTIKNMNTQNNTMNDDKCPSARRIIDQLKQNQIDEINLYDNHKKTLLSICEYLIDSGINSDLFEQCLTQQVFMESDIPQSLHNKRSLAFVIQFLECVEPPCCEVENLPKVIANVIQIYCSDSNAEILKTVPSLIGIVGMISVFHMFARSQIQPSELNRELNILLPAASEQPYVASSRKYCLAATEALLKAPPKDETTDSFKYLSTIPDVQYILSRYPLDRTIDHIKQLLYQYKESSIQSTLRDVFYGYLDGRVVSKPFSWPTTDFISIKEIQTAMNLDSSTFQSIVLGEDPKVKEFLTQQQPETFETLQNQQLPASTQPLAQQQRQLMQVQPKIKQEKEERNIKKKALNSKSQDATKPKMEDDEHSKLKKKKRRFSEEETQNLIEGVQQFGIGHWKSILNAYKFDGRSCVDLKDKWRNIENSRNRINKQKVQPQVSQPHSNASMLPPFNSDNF
Put plainly: EMSA supershift. As to conditions: anti-EhTRF-like III antibody, complex III enriched on overexpression; 12 mM HEPES pH 7.9, 60 mM KCl, 5 mM MgCl2, 1 mM EDTA, 4 mM Tris-HCl, 5 mM DTT, 10% glycerol, 4 mM spermidine, 50 ng poly dI-dC; protein in an extract; residues 1-460; protein details: N-terminal Myc (pKT-3M); label: 32P. In general terms: In EMSA bound probe runs differently from free probe, usually more slowly.

Construct, isoform or probe ends are uncertain for at least one entry. At least one result comes from cells or an extract, where the contact may be indirect. Protein sequences can lack the tags named with them.

For the sequence “GCTCTATTAGTATTTTAGTATTTTAGTATTTTAGTATT / CATCTAGAGCAATACTAAAATACTAAAATACTAAAATACTAA [EhTEL]”, the binding result is on record as “binds”.

The values are drawn from article PMC6175992, “Telomeric Repeat-Binding Factor Homologs in Entamoeba histolytica: New Clues for Telomeric Research”.
